Measured values reported in PubChem BioAssay AID256 (DTP/NCI, 2004).
The list shows only some results of the screen, not a fair sample: it gathers tests that were run many times, whatever their T/C, doses with no T/C, and many T/C values between a quarter and a half above the control. Other doses and runs of a compound stand elsewhere. T/C is the treated group as % of the vehicle group. Some doses have a count of surviving animals in place of a T/C: the source files T/C as zero there, which appears to mark a toxic dose or a test without result, not a measured value. Some doses without a T/C left all or most animals alive at the check, yet need not have been tolerated: the source hardly ever lists a survival T/C far under the control, and the zero likely stands for such cases as well. Counts of survivors are from the toxicity check (mostly the fifth day) where no day follows; animals may have died later. Schedules are NCI's codes, read here as Q, the interval in days (D) or hours (H), X, the number of doses. Some entries were tested several times; the values are given in rising order. Where survival is the endpoint, the PubChem record calls one and a half times the control and up active, and a quarter to a half above the control has no call in these data; cut-offs in other NCI protocols can differ. Some T/C values carry the count of animals alive at the toxicity check (mostly the fifth day); without a count, all were alive then.

Test system: CD2F1 mice, L1210 leukemia ip, survival T/C
Experiment: NCI In Vivo Anticancer Drug Screen. Data for tumor model L1210 Leukemia (intraperitoneal) in CD2F1 (CDF1) mice
Details: higher T/C = longer survival
Method in brief: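 Vehicle-treated tumor-bearing mice served as controls (C) for compound-treated mice (T). Reported figure is T divided by C.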

[1] = T/C endpoint: mean survival time, dose: 400.0 mg/kg/injection, schedule: Q04DX003 (ip), vehicle: saline with Tween-80
[2] = T/C endpoint: mean survival time, dose: 400.0 mg/kg/injection, schedule: Q01DX009 (ip), vehicle: saline with Tween-80
[3] = T/C endpoint: mean survival time, dose: 100.0 mg/kg/injection, schedule: Q01DX009 (ip), vehicle: saline
[4] = T/C endpoint: mean survival time, dose: 200.0 mg/kg/injection, schedule: Q01DX001 (ip), vehicle: saline with Tween-80
[5] = T/C endpoint: mean survival time, dose: 400.0 mg/kg/injection, schedule: Q01DX001 (ip), vehicle: saline with Tween-80
[6] = T/C endpoint: mean survival time, dose: 25.0 mg/kg/injection, schedule: Q01DX009 (ip), vehicle: saline with Tween-80
[7] = T/C endpoint: mean survival time, dose: 50.0 mg/kg/injection, schedule: Q01DX009 (ip), vehicle: saline with Tween-80
[8] = T/C endpoint: mean survival time, dose: 200.0 mg/kg/injection, schedule: Q01DX009 (ip), vehicle: saline with Tween-80
[9] = T/C endpoint: mean survival time, dose: 200.0 mg/kg/injection, schedule: Q04DX003 (ip), vehicle: saline with Tween-80

COc1cccc2c1C(=O)c1c(O)c3c(c(O)c1C2=O)C[C@@](O)(C(=O)COC(=O)c1ccccc1)C[C@@H]3OC1CC(N)C(O)C(C)O1 (stereo partly specified)
T/C (T/C endpoint: mean survival time, dose: 0.5 mg/kg/injection, schedule: Q04DX003 (ip), vehicle: saline with Tween-80): 137 % of control
T/C (T/C endpoint: mean survival time, dose: 1.0 mg/kg/injection, schedule: Q01DX009 (ip), vehicle: saline sonified): 139 % of control
T/C (T/C endpoint: mean survival time, dose: 1.0 mg/kg/injection, schedule: Q04DX003 (ip), vehicle: saline with Tween-80): 145 % of control
T/C (T/C endpoint: mean survival time, dose: 1.4 mg/kg/injection, schedule: Q04DX003 (ip), vehicle: saline with Tween-80): 126 % of control
T/C (T/C endpoint: mean survival time, dose: 2.0 mg/kg/injection, schedule: Q01DX009 (ip), vehicle: saline sonified): 139 % of control
T/C (T/C endpoint: mean survival time, dose: 2.0 mg/kg/injection, schedule: Q04DX003 (ip), vehicle: Klucel (hydroxypropylcellulose) (HPC)): 131 % of control
T/C (T/C endpoint: mean survival time, dose: 2.0 mg/kg/injection, schedule: Q04DX003 (ip), vehicle: saline with Tween-80): 138 and 143 % of control
T/C (T/C endpoint: mean survival time, dose: 3.0 mg/kg/injection, schedule: Q04DX003 (ip), vehicle: Klucel (hydroxypropylcellulose) (HPC)): 139 % of control
T/C (T/C endpoint: mean survival time, dose: 3.0 mg/kg/injection, schedule: Q04DX003 (ip), vehicle: saline with Tween-80): 140 % of control

CN(C)C(=O)OCC#CCOC(=O)N(C)C
survivor count (T/C endpoint: mean survival time, dose: 400.0 mg/kg/injection, schedule: Q04DX002 (ip), vehicle: saline): 1 of 3

COc1cc2nc(C(O)C(O)c3nc4cc(OC)c(OC)cc4[nH]3)[nH]c2cc1OC (stereo unspecified)
survivor count [1]: 6 of 6

COc1c(NC(C)=O)cc2c(c1C)OC(C)(C)C=C2
survivor count [2]: 1 of 6

O=c1ccn(C2OC(CO)C(O)C2O)c(=O)[n]1[Hg][c]1ccccc1 (stereo unspecified)
T/C (T/C endpoint: median survival time, dose: 0.79 mg/kg/injection, schedule: Q01DX005 (ip), vehicle: saline): 128 % of control
T/C (T/C endpoint: median survival time, dose: 1.56 mg/kg/injection, schedule: Q01DX005 (ip), vehicle: saline): 131 % of control
survivor count (T/C endpoint: median survival time, dose: 12.5 mg/kg/injection, schedule: Q01DX005 (ip), vehicle: saline): 0 of 6 and 3 of 6

CCOC(=O)C(=O)O
survivor count [3]: 1 of 6
survivor count (T/C endpoint: mean survival time, dose: 400.0 mg/kg/injection, schedule: Q01DX009 (ip), vehicle: saline): 6 of 6

O=C(NC(C(=O)NC(C(=O)O)C1CC(Cl)=NO1)C1CC(Cl)=NO1)OCC1c2ccccc2-c2ccccc21 (stereo unspecified)
T/C (T/C endpoint: mean survival time, dose: 3.12 mg/kg/injection, schedule: Q01DX009 (ip), vehicle: saline): 137 % of control
T/C (T/C endpoint: mean survival time, dose: 6.2 mg/kg/injection, schedule: Q01DX009 (ip), vehicle: saline): 148 % of control
T/C (T/C endpoint: mean survival time, dose: 6.25 mg/kg/injection, schedule: Q01DX009 (ip), vehicle: saline): 146 % of control
T/C (T/C endpoint: mean survival time, dose: 12.5 mg/kg/injection, schedule: Q01DX009 (ip), vehicle: saline): 127 [5 of 6 alive] and 133 % of control
survivor count (T/C endpoint: mean survival time, dose: 25.0 mg/kg/injection, schedule: Q01DX009 (ip), vehicle: saline): 6 of 6
survivor count (T/C endpoint: mean survival time, dose: 50.0 mg/kg/injection, schedule: Q01DX009 (ip), vehicle: saline): 4 of 6
survivor count [3]: 0 of 6

CC(C)(C)CC(C)(C)c1ccc(O)cc1O
survivor count [4]: 2 of 6
survivor count [5]: 0 of 6

N#CSCc1ccccc1
survivor count [6]: 1 of 3
survivor count [7]: 0 of 3 and 1 of 3
survivor count (T/C endpoint: mean survival time, dose: 100.0 mg/kg/injection, schedule: Q01DX009 (ip), vehicle: saline with Tween-80): 0 of 3
survivor count [8]: 0 of 3

O=S1OCC2(CO1)COS(=O)OC2 (stereo unspecified)
survivor count (T/C endpoint: mean survival time, dose: 12.5 mg/kg/injection, schedule: Q01DX001 (ip), vehicle: saline with Tween-80): 1 of 3

Nc1ccnnc1
survivor count (T/C endpoint: mean survival time, dose: 400.0 mg/kg/injection, schedule: Q04DX003 (ip), vehicle: saline): 0 of 6

CN(C)N=Nc1cccnc1
T/C (T/C endpoint: mean survival time, dose: 75.0 mg/kg/injection, schedule: Q01DX001 (ip), vehicle: saline): 125 % of control
survivor count (T/C endpoint: mean survival time, dose: 150.0 mg/kg/injection, schedule: Q01DX001 (ip), vehicle: saline): 3 of 6
survivor count (T/C endpoint: mean survival time, dose: 300.0 mg/kg/injection, schedule: Q01DX001 (ip), vehicle: saline): 0 of 6

O=C(O)C1C2c3cccc4cccc(c34)C12 (stereo unspecified)
survivor count [1]: 6 of 6

O=[N+]([O-])c1cccn2nc(C3OC(CO)C(O)C3O)nc12 (stereo unspecified)
survivor count (T/C endpoint: mean survival time, dose: 200.0 mg/kg/injection, schedule: Q01DX005 (ip), vehicle: water): 2 of 6

O=C(O)/C=C/C(=O)Nc1ccccc1Cl
survivor count [2]: 1 of 6

O=C(COc1cc(Cl)c(Cl)cc1Cl)OCCOc1cc(Cl)c(Cl)cc1Cl
survivor count (T/C endpoint: mean survival time, dose: 7.5 mg/kg/injection, schedule: Q04DX003 (ip), vehicle: saline): 6 of 6
survivor count (T/C endpoint: mean survival time, dose: 50.0 mg/kg/injection, schedule: Q01DX001 (ip), vehicle: saline): 6 of 6
survivor count (T/C endpoint: mean survival time, dose: 100.0 mg/kg/injection, schedule: Q01DX001 (ip), vehicle: saline): 6 of 6
survivor count (T/C endpoint: mean survival time, dose: 400.0 mg/kg/injection, schedule: Q01DX001 (ip), vehicle: saline): 6 of 6

O=C(CCC(=O)Nc1ccc(S(=O)(=O)NCCO)cc1)Nc1ccc(S(=O)(=O)NCCO)cc1
survivor count (T/C endpoint: mean survival time, dose: 100.0 mg/kg/injection, schedule: Q01DX001 (ip), vehicle: saline with Tween-80): 5 of 6
survivor count [4]: 6 of 6
survivor count [5]: 6 of 6

CCOC(=O)/C=C1\NC(=O)N(CCCN2C(=O)N/C(=C\C(=O)OCC)C2=O)C1=O
survivor count (T/C endpoint: mean survival time, dose: 12.5 mg/kg/injection, schedule: Q01DX009 (ip), vehicle: saline with Tween-80): 3 of 3
survivor count [6]: 3 of 3

CC(NC1CCCCC1)c1ccc(O)cc1O (stereo unspecified)
survivor count (T/C endpoint: mean survival time, dose: 300.0 mg/kg/injection, schedule: Q01DX001 (ip), vehicle: other): 0 of 6

N#CC(C#N)=c1ccc(=C(C#N)C#N)cc1
survivor count [9]: 5 of 6
survivor count [1]: 0 of 6

C[n+]1ccc(/C=C\c2ccc(N(CCCl)CCCl)cc2)c2ccccc21
survivor count (T/C endpoint: mean survival time, dose: 50.0 mg/kg/injection, schedule: Q01DX009 (ip), vehicle: Klucel (hydroxypropylcellulose) (HPC)): 0 of 3
survivor count (T/C endpoint: mean survival time, dose: 100.0 mg/kg/injection, schedule: Q01DX009 (ip), vehicle: Klucel (hydroxypropylcellulose) (HPC)): 0 of 3
survivor count (T/C endpoint: mean survival time, dose: 200.0 mg/kg/injection, schedule: Q01DX009 (ip), vehicle: Klucel (hydroxypropylcellulose) (HPC)): 0 of 3

COc1ccc(/C=N/NC(=O)CNC(=O)c2ccccc2)cc1
survivor count [8]: 6 of 6

OC1CCC2=C(C1)C1CCC2C1 (stereo unspecified)
survivor count (T/C endpoint: mean survival time, dose: 100.0 mg/kg/injection, schedule: Q04DX003 (ip), vehicle: saline with Tween-80): 6 of 6
survivor count [9]: 3 of 6
survivor count [1]: 1 of 6

CCN(Cc1cnc2nc(N)nc(N)c2n1)c1ccc(C(=O)NC(CCC(=O)O)C(=O)O)cc1 (stereo unspecified)
T/C (T/C endpoint: mean survival time, dose: 1.25 mg/kg/injection, schedule: Q01DX009 (ip), vehicle: sodium bicarbonate): 141 % of control
survivor count (T/C endpoint: mean survival time, dose: 25.0 mg/kg/injection, schedule: Q01DX009 (ip), vehicle: sodium bicarbonate): 6 of 6

CCC[CH2][Sn]1([CH2]CCC)[O]C2C(CO)OC(n3ccc4c(N)ncnc43)C2[O]1 (stereo unspecified)
survivor count (T/C endpoint: mean survival time, dose: 6.25 mg/kg/injection, schedule: Q01DX005 (ip), vehicle: other): 0 of 6
survivor count (T/C endpoint: mean survival time, dose: 6.25 mg/kg/injection, schedule: Q01DX005 (ip), vehicle: water): 6 of 6
survivor count (T/C endpoint: mean survival time, dose: 12.5 mg/kg/injection, schedule: Q01DX005 (ip), vehicle: other): 0 of 6
survivor count (T/C endpoint: mean survival time, dose: 25.0 mg/kg/injection, schedule: Q01DX005 (ip), vehicle: other): 0 of 6

NCc1cn(C2OC(CO)C(O)C2O)c2ncnc(N)c12 (stereo unspecified)
survivor count (T/C endpoint: mean survival time, dose: 12.5 mg/kg/injection, schedule: Q01DX005 (ip), vehicle: water): 4 of 6
survivor count (T/C endpoint: mean survival time, dose: 25.0 mg/kg/injection, schedule: Q01DX005 (ip), vehicle: water): 5 of 6
survivor count (T/C endpoint: mean survival time, dose: 50.0 mg/kg/injection, schedule: Q01DX005 (ip), vehicle: water): 0 of 6

Oc1ccccc1/C=N/c1nc(-c2ccccc2)cs1.Oc1ccccc1/C=N/c1nc(-c2ccccc2)cs1.[Zn]
survivor count [4]: 3 of 3
survivor count [5]: 3 of 3

CCCCc1ccc2nc(NC(=O)OC)[nH]c2c1
T/C [6]: 128 % of control
T/C [7]: 134 % of control

O=C1C(=O)c2ccccc2-c2ccccc21
survivor count [8]: 6 of 6
